This passage reports AC50 results from PubChem BioAssay AID493014 (National Center for Advancing Translational Sciences (NCATS), 2011).

The assay can be described thus: qHTS Assay to Find Inhibitors of Chronic Active B-Cell Receptor Signaling. To be noted: ABC-DLBCL IkBa-CBG/CBR reporter, luminescence ratio (green luciferase fused to IkBa over red control in TMD8 lymphoma cells), 4 h. In outline:
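TMD8 human ABC-DLBCL cells with doxycycline-inducible IκBα–green luciferase fusion and unfused red luciferase, in 0.5% FBS medium; compounds up to 46 uM, 4 h at 37C. Green/red luminescence ratio, filter-overlap corrected, fitted to concentration-response curves.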
A general note: qHTS replaces the single test concentration by a dilution series.

Setting [1] is: measured here: CBR red luminescence, cell number.
Setting [2] is: measured here: IkBa-CBG green luminescence.

Each structure is given as a SMILES string. This is one part of the list. Shown are side measurements of this screen, not its main read-out; they come without a call. Most of these compounds were active or inconclusive in the main read-out, so they are no random draw. Potencies come from curve fits of mixed quality, noted in brackets.

A word on the AC50: it is the concentration giving half of the maximal activity seen. On to `COc1ccc(-c2noc(CCC(=O)Nc3cc(Cl)c(OC)cc3OC)n2)cc1`, for which the AC50 under setting [1] was 0.651 µM [rising, full curve].
Turning to `O=C(CN1CCN(C(=O)c2ccco2)CC1)Nc1ccccc1-c1ccccc1`, under setting [1], the AC50 is 11.2 µM [falling, partial curve].
Consider `Cc1ccn2c(NC(=O)c3ccco3)c(-c3ccccc3)nc2c1`, for which the AC50 under setting [1] is 29.1 µM [falling, single point].
With `Cc1cccc(NC(c2ccc(O)cc2)c2ccc3ccc(C)nc3c2O)n1` (stereo not drawn), the AC50 under setting [1] was 14.6 µM [falling, single point].
Consider `Cc1ccc2c(c1)c1c3n2CCN(C(=O)CCl)C3CCC1` (stereo not drawn), for which the AC50 under setting [1] is 17.8 µM [falling, partial curve, poor fit].
Take `O=C(N/N=C/c1ccncc1)c1ccccc1`: under setting [1], the half-maximal activity concentration (AC50) was 15.8 µM [falling, single point].
In the case of `Cc1ccc(C(=O)c2cc([N+](=O)[O-])ccc2N2CCCCC2)cc1`, the AC50 under setting [2] was 6.51 µM [falling, full curve].
Turning to `Cc1ccc(CNC(=O)CN(C)S(=O)(=O)c2cccc3cccnc23)cc1`, the AC50 under setting [1] was 3.16 µM [rising, full curve, poor fit].
The same measure, in the same setting: in the case of `O=c1cc(-c2ccc3c(c2)OCO3)oc2ccccc12` it was 0.326 µM [rising, full curve, poor fit]; in that of `CC(C(=O)N=Nc1c(O)n(C)c2ccc(Br)cc12)n1cnc2ccccc2c1=O` (stereo not drawn), 2.51 µM [falling, partial curve, poor fit].
For the compound `COc1ccc(-c2cc(C(F)F)n3ncc(C(=O)N4CCSCC4)c3n2)cc1`, the AC50 under setting [1] is 0.731 µM [rising, full curve, poor fit] and the AC50 under setting [2] was 5.17 µM [falling, partial curve, poor fit].
On to `O=[N+]([O-])c1ccc(-c2ccc(S(=O)(=O)N3CCOCC3)cc2)cc1`, for which the AC50 under setting [1] was 12.6 µM [rising, single point].
With `Cc1ccccc1OCC(=O)N(Cc1ccc(N(C)C)cc1)C1CCS(=O)(=O)C1` (stereo not drawn), the AC50 under setting [1] is 15.8 µM [falling, single point].
On to `CC(C)(C)OC(=O)NCCCCCc1cn([C@@H](CO)C(=O)NCCCCCCCCCCC(=O)N2CCN(C(=O)OC(C)(C)C)CC2)nn1`, for which the AC50 under setting [1] was 13 µM [falling, partial curve].
In the case of `C=CCOc1ccc(/C=C/C(=O)OCC(=O)N(C)CC(=O)Nc2ccccc2Cl)cc1`, under setting [1], the AC50 is 2.59 µM [rising, partial curve, poor fit].
`O=C(C[n+]1ccc2ccccc2c1)c1cccc2ccccc12`: the AC50 under setting [2] is 11.2 µM [rising, partial curve, poor fit].
For `CCn1c(Cc2ccccc2)nnc1SCc1cccc(C(=O)O)c1`, the AC50 under setting [1] was 3.66 µM [rising, partial curve, poor fit].
